According to US20250188136A1, “AV3 MUTANT POLYPEPTIDES FOR PEST CONTROL” (Vestaron Corporation, priority 2021, published 2025):

Columns and labels:
[1] = Summary of desirable properties of Av3b mutants relative to Av3b; set-up: key: Y = yield; A = activity; S = general stability; D = resistance to proteolytic degradation in fermentation media (fermentation beer); F = similar protein folding relative to Av3b (as determined via circular dichroism); T = thermostable at 54° C.; P = stable under diverse pH conditions; G = stable in insect gut extract
[2] = as above; set-up: key: Y = yield; A = activity; S = general stability; D = resistance to proteolytic degradation in fermentation beer; F = similar protein folding relative to Av3b (as determined via circular dichroism); T = thermostable at 54° C.; P = stable under diverse pH conditions; G = stable in insect gut extract; settings: Table 12: all mutants evaluated
[3] = Table 1: at least one novel property relative to Av3b
[4] = Table 12: all mutants evaluated, relative to Av3b

Sequence	Desirable property [1, 3]	Desirable property [1, 4]	Desirable property [2]
HSCCPCYWGGCPWGQNCYPEGCSGPK (Av3bM28; VARIANT (1)..(26) Recombinant variant of Anemonia viridis Av3 peptide)	Y	Y	–
KSCCPCYWGGCPWGQNCYPEGCSGPA (Av3bM97; VARIANT (1)..(26) Recombinant variant of Anemonia viridis Av3 peptide)	A	A	–
ISCCPCYWGGCPWGQNCYPEGCSGPK (Av3bM39; VARIANT (1)..(26) Recombinant variant of Anemonia viridis Av3 peptide)	A	A	–
KSCCPCYWGGCPWGQNCYPEGCSGPR (Av3bM98; VARIANT (1)..(26) Recombinant variant of Anemonia viridis Av3 peptide)	D	–	D
SSCCPCYWGGCPWGQNCYPEGCSGPK (Av3bM32; VARIANT (1)..(26) Recombinant variant of Anemonia viridis Av3 peptide)	Y	Y	–
KSCCPCYWGGCPWGQNCYPEGCSG (Av3bM164; VARIANT (1)..(24) Recombinant variant of Anemonia viridis Av3 peptide)	A	A	–
ESCCPCYWGGCPWGQNCYPEGCSGPK (Av3bM37; VARIANT (1)..(26) Recombinant variant of Anemonia viridis Av3 peptide)	Y	Y	–
LSCCPCYWGGCPWGQNCYPEGCSGPK (Av3bM40; VARIANT (1)..(26) Recombinant variant of Anemonia viridis Av3 peptide)	A	A	–
QSCCPCYWGGCPWGQNCYPEGCSGPH (Av3bM30; VARIANT (1)..(26) Recombinant variant of Anemonia viridis Av3 peptide)	Y	Y	–
QSCCPCYWGGCPWGQNCYPEGCSGPK (Av3bM29; VARIANT (1)..(26) Recombinant variant of Anemonia viridis Av3 peptide)	Y	Y	–
NSCCPCYWGGCPWGQNCYPEGCSGPK (Av3bM35; VARIANT (1)..(26) Recombinant variant of Anemonia viridis Av3 peptide)	Y	Y	–
KSCCPCYWGGCPWGQNCYPEGCSGPKG [Av3bM148]	D	–	D
KSCCPCYWGGCPWGQNCYPEGCSGPT (Av3bM111; VARIANT (1)..(26) Recombinant variant of Anemonia viridis Av3 peptide)	A	A	–
KSCCPCYWGGCPWGQNCYPEGCGGPK (Av3bM85; VARIANT (1)..(26) Recombinant variant of Anemonia viridis Av3 peptide)	A	A	–
SSCCPCYWGGCPWGQNCYPEGCSGPT (Av3bM33; VARIANT (1)..(26) Recombinant variant of Anemonia viridis Av3 peptide)	Y	Y	–
TSCCPCYWGGCPWGQNCYPEGCSGPK (Av3bM31; VARIANT (1)..(26) Recombinant variant of Anemonia viridis Av3 peptide)	Y	Y	–
KSCCPCYWGGCPWGQNCYPEGCVGPK (Av3bM96; VARIANT (1)..(26) Recombinant variant of Anemonia viridis Av3 peptide)	A	A	–
KSCCPCYWGGCPWGQNCYPEGCTGPK (Av3bM93; VARIANT (1)..(26) Recombinant variant of Anemonia viridis Av3 peptide)	A	A	–
KSCCPCYWAGCPWGQNCYPEGCSGPK (Av3bM27; VARIANT (1)..(26) Recombinant variant of Anemonia viridis Av3 peptide)	A	A	–
VSCCPCYWGGCPWGQNCYPEGCSGPK (Av3bM46; VARIANT (1)..(26) Recombinant variant of Anemonia viridis Av3 peptide)	A	A	–
KSCCPCYWGGCPWGQNCYPEGCSGP (Av3bM163; VARIANT (1)..(25) Recombinant variant of Anemonia viridis Av3 peptide)	A	A	–
KSCCPCYWGGCPWGQNCYPEGCSGPKVI [Av3bM168]	A	A	–
KSCCPCYWPNCPWGQNCYPEGCSGPK (Av3bM5; VARIANT (1)..(26) Recombinant variant of Anemonia viridis Av3 peptide)	Y	Y	–
